This assay has as its target 5HT6-human recombinant receptor (Homo sapiens, UniProt P50406). Put plainly: Binding to serotonin receptor 5-HT6 ([3H]-LSD radioligand). To be noted: membranes of HEK-293 cells expressing the receptor; [3H]-LSD 2.7 nM; 60 min at 37° C. The procedure:
Cell membranes of HEK-293 cells expressing the 5HT6-human recombinant receptor were supplied by Receptor Biology. In said membranes the receptor concentration is 2.18 pmol/mg protein and the protein concentration is 9.17 mg/ml. The experimental protocol follows the method of B. L. Roth et al. [B. L. Roth, S. C. Craigo, M. S. Choudhary, A. Uluer, F. J. Monsma, Y. Shen, H. Y. Meltzer, D. R. Sibley: Binding of Typical and Atypical Antipsychotic Agents to 5-Hydroxytryptamine-6 and Hydroxytryptamine-7 Receptors. The Journal of Pharmacology and Experimental Therapeutics, 1994, 268, 1403] with the following slight changes. The respective part of the literature description is hereby incorporated by reference and forms part of the disclosure.
The commercial membrane is diluted (1:40 dilution) with the binding buffer: 50 mM Tris-HCl, 10 mM MgCl2, 0.5 mM EDTA (pH 7.4). […] Non-specific binding is determined in the presence of 100 μM of serotonin. […] The inhibition constants (Ki, nM) were calculated by non-linear regression analysis using the program EBDA/LIGAND described in Munson and Rodbard, Analytical Biochemistry, 1980, 107, 220, the respective part of which is hereby incorporated by reference and forms part of the disclosure.
The binding of the substituted indazolyl sulfonamide or 2,3-dihydro-indolyl sulfonamide compounds to the 5-HT6 receptor was determined as described above.

By UniProt entry, the sequences of proteins in these tests, tags left out.
UniProt P50406, whole entry: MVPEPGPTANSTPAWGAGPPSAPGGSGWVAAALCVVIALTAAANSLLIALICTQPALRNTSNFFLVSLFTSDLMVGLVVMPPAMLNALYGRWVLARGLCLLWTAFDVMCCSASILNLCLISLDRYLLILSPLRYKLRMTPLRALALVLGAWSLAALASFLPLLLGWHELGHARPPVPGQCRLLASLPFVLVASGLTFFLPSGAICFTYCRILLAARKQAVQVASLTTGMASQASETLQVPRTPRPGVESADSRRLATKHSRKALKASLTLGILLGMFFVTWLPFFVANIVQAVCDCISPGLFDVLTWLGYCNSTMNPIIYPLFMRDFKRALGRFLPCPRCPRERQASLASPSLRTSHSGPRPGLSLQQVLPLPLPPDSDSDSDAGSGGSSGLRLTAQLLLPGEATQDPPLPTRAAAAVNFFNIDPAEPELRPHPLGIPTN

Structures are written as SMILES. Structures were worked out from names or drawings and are uncertain.

For the molecule `CN1CCC(c2n[nH]c3ccc(NS(=O)(=O)c4ccc5ccccc5c4)cc23)CC1`, the Ki was found to be 146 nM.

The Ki is the equilibrium dissociation constant of an inhibitor or competing ligand from its target.

Source of the values: patent US20090005417A1, “Substituted Indazolyl Sulfonamide and 2,3-Dihydro-Indolyl Sulfonamide Compounds, their Preparation and Use in Medicaments” (LABORATORIOS DEL DR. ESTEVE S.A., priority 2004, published 2009).
